Assay results reported in patent US5837807 (dated 1998).

Assay: general procedure: solution-phase peptide synthesis; polystyrene-divinylbenzene (named as a possible carrier); TATU/HOAT (HOPT)/ethyldiisopropylamine or EDC/HOBt/ethyldiisopropylamine
Settings: coupling step, trifluoroacetate (1:1) for amine intermediates
“tert.butyl [(S)-1-[(3S,7S,10S,13R)-5-ethyl-3,7,10-trimethyl-6,9,12-trioxo-13,15-etheno-3,4,5,6,7,8,9,10,11,12,13,14,19,20-tetradecahydro-2H-1,5,8,11-benzoxatriazacyclohexadecin-13-ylcarbamoyl]-ethyl]-carbamate” gave a step yield of 86.4%. With “tert.butyl [(S)-1[(13S,16S,19R)-13,16-dimethyl-12,15,18-trioxo-11,12,13,14,15,16,17,18,19,20,22-dodecahydro-1,19-etheno-10H-dibenz-[b,o][1,5,8,11]oxatriazacyclohexadecin-19-ylcarbamoyl]-ethyl]-carbamate” the step yield was 100%. For “tert.butyl [(S)-1-[(12S,15S,18R)-12,15-dimethyl-11,14,17-trioxo-10,11,12,13,14,15,16,17,18,19,20,21-dodecahydro-1,18-etheno-pyrido[2,3-b]-benz[n][1,4,7,10]oxatriazacyclopentadecin-18-ylcarbamoyl]-ethyl]-carbamate”, the step yield was 79.7%. Work on “tert.butyl (S)-1-[(12S,15S,18R)-12,15-dimethyl-11,14,17-trioxo-10,11,12,13,14,15,16,17,18,19,20,21-dodecahydro-1,18-etheno-dibenz[b,n]-[1,5,8,11]oxatriazacyclopentadecin-18-ylcarbamoyl]-ethyl carbamate” yielded a step yield of 90.4%. In the case of “tert.butyl [(S)-1-[(3S,7S,10S,13R)-3,7,10-trimethyl-6,9,12-trioxo-3,4,5,6,7,8,9,10,11,12,13,14,19,20-tetradecahydro-13,15-etheno-2H-1,5,8,11-benzoxatriazacyclohexadecin-13-ylcarbamoyl]-ethyl]-carbamate”, the step yield is reported as >100%.

Same assay, conditions: late stage modification step, trifluoroacetate (1:1) for amine intermediates
“(S)-2-amino-N-[(12S,15S,18R)-12,15-dimethyl-11,14,17-trioxo-10,11,12,13,14,15,16,17,18,19,20,21-dodecahydro-1,18-etheno-dibenz[b,n][1,5,8,11]-oxatriazacyclopentadecin-18-yl]-propionamide trifluoroacetate (1:1)” gave a step yield of ~100%. With “(S)-2-amino-N-[(13S,16S,19R)-13,16-dimethyl-12,15,18-trioxo-11,12,13,14,15,16,17,18,19,20,21,22-dodecahydro-1,19-etheno-10H-dibenz[b,o][1,5,8,11]oxatriazacyclohexadecin-19-yl]-propionamide trifluoroacetate (1:1)” the step yield was 75.4%. In the case of “(S)-2-amino-N-[(12S, 15S,18R)-12,15-dimethyl-11,14,17-trioxo-10,11,12,13,14,15,16,17,18,19,20,21-dodecahydro-1,18-etheno-pyrido[2,3-b]benz[n][1,4,7,10]oxatriazacyclopentadecin-18-yl]-propionamide trifluoroacetate (1:1)”, the step yield is reported as 87%. Work on “(S)-2-amino-N-[(3S,7S,10S,13R)-5-ethyl-3,7,10-trimethyl-6,9,12-trioxo-13,15-etheno-3,4,5,6,7,8,9,10,11,12,13,14,19,20-tetradecahydro-2H-1,5,8,11-benzoxatriazacyclohexadecin-13-yl]-propionamide trifluoroacetate (1:1)” yielded a step yield of 94.8%.
